In test [1] the target is cyclin-dependent kinase CDK4 (human (endogenous in HCT116)) (UniProt P11802). As to the kind of experiment: condition: only untreated control cells (without fucoidan); co-IP; untreated control p53+/+ and p53−/− HCT116 cells (no fucoidan); 500 μg total cell lysate immunoprecipitated with anti-CDK2 or anti-CDK4 antibodies, blot probed with anti-p21 or anti-p27.
The target is the same in test [2]. Put plainly: co-IP; p53+/+ and p53−/− HCT116 cells treated with 150 μg/mL fucoidan for 24 h; 500 μg total cell lysate immunoprecipitated with anti-CDK2 or anti-CDK4 antibodies (6 h, 4 °C, protein A-Sepharose), blot probed with anti-p21 or anti-p27.

Sequences of proteins named here, by UniProt entry; tags and fusion partners are left off.
UniProt P11802: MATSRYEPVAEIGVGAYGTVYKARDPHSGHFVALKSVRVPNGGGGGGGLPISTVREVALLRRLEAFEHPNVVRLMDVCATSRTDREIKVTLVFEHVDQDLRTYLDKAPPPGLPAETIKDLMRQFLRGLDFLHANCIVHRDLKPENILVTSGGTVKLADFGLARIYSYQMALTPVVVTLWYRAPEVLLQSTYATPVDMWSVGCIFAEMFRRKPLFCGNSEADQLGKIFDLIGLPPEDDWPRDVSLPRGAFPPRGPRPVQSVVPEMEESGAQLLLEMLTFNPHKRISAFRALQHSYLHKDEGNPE
UniProt P38936: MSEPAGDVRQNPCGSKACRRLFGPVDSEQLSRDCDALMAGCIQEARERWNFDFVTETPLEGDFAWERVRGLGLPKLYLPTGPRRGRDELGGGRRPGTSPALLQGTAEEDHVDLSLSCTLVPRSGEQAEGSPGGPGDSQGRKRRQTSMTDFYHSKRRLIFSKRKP
UniProt P46527: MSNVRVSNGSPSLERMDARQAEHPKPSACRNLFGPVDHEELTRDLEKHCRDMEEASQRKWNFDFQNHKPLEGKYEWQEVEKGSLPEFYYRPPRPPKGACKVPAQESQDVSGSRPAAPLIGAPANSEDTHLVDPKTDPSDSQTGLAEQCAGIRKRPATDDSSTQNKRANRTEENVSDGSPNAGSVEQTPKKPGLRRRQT

Results are given in words; binding and its absence hold for the method and conditions named. Binding seen in cells or lysates may run through a third protein. Some binding calls cover weakened binding; strength is not graded here.

Take “p21WAF1/CIP1 (from UniProt P38936 1-164)”: the binding result in test [1] is on record as “no binding”.

On to p27KIP1 (from UniProt P46527 1-198), for which the values for the binding result in test [2] and in test [1] were “binds” and “no binding”, respectively.

The values are drawn from PMC5484104.
